The other results are listed elsewhere or left out. Further columns of the screen follow, without active or inactive calls. Most of these compounds were active or inconclusive in the main read-out, so they are no random draw. Potencies come from curve fits of mixed quality, noted in brackets.
Experiment: qHTS Assay to Find Inhibitors of Chronic Active B-Cell Receptor Signaling
Settings: ABC-DLBCL IkBa-CBG/CBR reporter, luminescence ratio (green luciferase fused to IkBa over red control in TMD8 lymphoma cells), 4 h
In short: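 TMD8 ABC-DLBCL cells carrying doxycycline-inducible green luciferase fused to IkappaBalpha plus unfused red luciferase were exposed to compounds (up to 46 uM) for 4 hrs at 37C. Activity came from the overlap-corrected green/red luminescence ratio.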

[1] = measured here: CBR red luminescence, cell number
[2] = measured here: IkBa-CBG green luminescence

Compound | AC50 [1] | AC50 [2]
NC(=O)c1ccc(N2CCN(c3ccccc3F)CC2)c([N+](=O)[O-])c1 | 6.31 µM [rising, full curve, poor fit] | –
O=C(CCCCCN1C(=O)c2cccc3cccc(c23)C1=O)NCCO | 28.2 µM [falling, single point] | –
CCn1c2ccccc2c2cc(NC(=O)c3ccc([N+](=O)[O-])cc3)ccc21 | 2.06 µM [rising, partial curve, poor fit] | –
Cc1cc(C(=O)CCl)c(C)n1-c1cccc(S(=O)(=O)N2CCOCC2)c1 | 11.2 µM [falling, partial curve] | –
Cc1c(C=O)c(C=O)c(C)n1Cc1ccccc1 | 16.4 µM [falling, partial curve] | 20.6 µM [rising, partial curve, poor fit]
C=CCNc1nc(-c2ccc(O)c(C(N)=O)c2)cs1 | 0.411 µM [rising, full curve, poor fit] | –
Cc1ccc(S(=O)(=O)Nc2ccc(S(=O)(=O)Nc3cc(C)nc(C)n3)cc2)cc1 | 35.5 µM [rising, single point] | –
S=C(c1ccc(-c2ccccc2Cl)o1)N1CCCCC1 | 18.4 µM [rising, single point] | 23.1 µM [rising, partial curve, poor fit]
CCCCNc1c(-c2ccc(-c3ccc(OC)cc3)c(OC)c2)nc2ccccn12 | 29.1 µM [falling, single point] | –
CC(=O)c1c(COC(=O)c2ccccc2)nc2ccccc2[n+]1[O-] | 14.6 µM [rising, single point] | –
Cc1cc([N+](=O)[O-])cc(/C=N/n2c(C)nc3ccccc3c2=O)c1O | 0.447 µM [falling, full curve, poor fit] | –
O=C(Cn1cnc2cc([N+](=O)[O-])ccc2c1=O)Nc1ccccc1Cl | 3.98 µM [falling, partial curve, poor fit] | –
CN1CCN(c2nc(-c3cccnc3)nc3scc(-c4ccccc4)c23)CC1 | 1.26 µM [rising, full curve, poor fit] | –
CCOc1ccc(NC(=O)Cn2cc(C(=O)CC)c3ccccc32)cc1 | 0.1 µM [rising, full curve, poor fit] | –
CC(=O)/C(=N/Nc1ccc(Br)cc1)N1CCCc2ccccc21 | – | 35.5 µM [rising, partial curve, poor fit]
O=C(CSc1nnc(-c2ccc(F)cc2)c2ccccc12)Nc1c(F)cccc1F | 29.1 µM [falling, single point] | –
O=C(N/N=C/c1cc(Br)c(Br)o1)C(O)c1ccccc1 (stereo unspecified) | 20.6 µM [falling, single point] | –
C=C1C(O)[C@@H]2O[C@]3(CC[C@H](/C=C/C(C)[C@@H]4CC(C)=CC5(O[C@H](C[C@@](C)(O)CO)CCC5O)O4)O3)CC[C@H]2O[C@@H]1C(O)CC(C)[C@H]1OC2(CCCCO2)CCC1C (stereo partly specified) | 0.92 µM [rising, full curve, poor fit] | 2.31 µM [falling, partial curve]
O=C(NC(=S)Nc1cccnc1Cl)c1ccc(Cl)cc1 | 2.51 µM [falling, full curve, poor fit] | –
COc1ccccc1CNS(=O)(=O)c1ccc2c(c1)N(C(C)=O)CCO2 | 35.5 µM [falling, single point] | –
O=C(Nc1ccc(N2CCOCC2)c(Cl)c1)c1cc2ccccc2o1 | 16.4 µM [falling, single point] | –

Complete entries, quoted from the list. Order of values: AC50 [1]	AC50 [2]
Cc1c(C=O)c(C=O)c(C)n1Cc1ccccc1 reads 16.4 µM [falling, partial curve]	20.6 µM [rising, partial curve, poor fit]
CCOc1ccc(NC(=O)Cn2cc(C(=O)CC)c3ccccc32)cc1 reads 0.1 µM [rising, full curve, poor fit]	–
O=C(CCCCCN1C(=O)c2cccc3cccc(c23)C1=O)NCCO reads 28.2 µM [falling, single point]	–

Additional results follow.

Compound | AC50 [1] | AC50 [2]
O=Cc1ccc(-c2ccccc2OC(F)(F)F)o1 | 2.91 µM [rising, single point] | –
Cc1ccnc(NC(=O)c2ccc(S(=O)(=O)c3ccccc3)cc2)c1 | 3.55 µM [falling, partial curve, poor fit] | –
Cc1cccc(N2CCN(S(=O)(=O)c3ccc4c(c3)NC(=O)C(C)S4)CC2)c1C (stereo unspecified) | 12.6 µM [falling, single point] | –
CCOC(=O)c1c(NC(=O)COC(=O)c2ccc(Cl)nc2)sc(C(=O)N(C)C)c1C | 1.84 µM [rising, full curve, poor fit] | –
CC(C)CNC(=O)NC(=O)COC(=O)c1cccc(NS(=O)(=O)c2ccc(F)c(F)c2)c1 | 11.6 µM [falling, partial curve, poor fit] | –
Cc1c(C(=O)O)oc2c3c(ccc12)OCCO3 | – | 13 µM [rising, partial curve, poor fit]
COc1ccc(CCn2c(N)c(C(=O)NCc3ccco3)c3nc4ccccc4nc32)cc1 | 23.1 µM [falling, single point] | –
O=c1[nH]cnc2c1sc1nc3c(c(-c4ccc(Cl)cc4)c12)CCC3 | 0.103 µM [rising, full curve, poor fit] | –
Oc1cccc(Nc2c3ccccc3nc3ccccc23)c1 | 35.5 µM [falling, single point] | –
Cc1cc2nc3c(=O)[nH]c(=S)[nH]c3nc2cc1NC(=O)C(F)(F)F | 2 µM [falling, full curve, poor fit] | –
CC1CCCCC1NC(=O)c1ccc(N2CCCC2=O)cc1 (stereo unspecified) | 18.4 µM [falling, partial curve, poor fit] | –
O=C(Nc1cccc(C(=O)Nc2ccc(F)cc2F)c1)c1ccccc1 | 11.2 µM [falling, partial curve, poor fit] | –
COc1ccc(CNC(=O)C[C@H]2C[C@H](C(=O)N(C(C)C)C(C)C)[C@@]3(C)c4[nH]c5cc(CCC(=O)N(C)C)ccc5c4CCN3C2=O)cc1OC | 32.6 µM [rising, single point] | –
Cc1c(C(=O)Nc2cccnc2)oc2ccc(Br)cc12 | 2.51 µM [rising, full curve] | –
CCCCN(CC)CCCNC(=O)c1ccc(CSc2nc3ccncc3[nH]2)cc1 | 35.5 µM [falling, single point] | –
Cc1ccc(-n2nnc3c(SCC(=O)NCc4ccco4)ncnc32)cc1 | 10.3 µM [falling, partial curve] | –
C1COC(NC(C2CC2)C2CC2)=N1 | 25.9 µM [falling, partial curve] | –
Cn1nnnc1Sc1ncnc2scc(-c3ccc[nH]3)c12 | 23.1 µM [falling, single point] | –
COC(=O)c1ccccc1NC(=S)NC(=O)C1CC1 | 16.4 µM [falling, single point] | –
O=C(c1ccc(Br)cc1)c1cc([N+](=O)[O-])ccc1N1CCCCC1 | 2.82 µM [rising, full curve] | 2.51 µM [falling, full curve]
Cc1cccc(OCc2nc(-c3nonc3N)no2)c1C | 0.92 µM [rising, full curve, poor fit] | –

Compound | AC50 [1] | AC50 [2]
Nc1ccc2c(c1)sc1ccccc12 | 11.6 µM [rising, partial curve] | –
CCOC(=O)Cc1cc(=O)n2[nH]c(C)c(-c3ccc(OC)cc3)c2n1 | 29.1 µM [falling, single point] | –
COc1ccc2c(c1)c(/C=N/Nc1ccc(C(=O)O)cc1)c(C)n2C | 0.794 µM [falling, full curve] | –
Cc1nc(N2CCCCC2)c2c(-c3cccs3)csc2n1 | 12.6 µM [rising, partial curve, poor fit] | –
O=C(O)c1ccc(N/N=C/c2ccc(F)c(F)c2)cc1 | 0.00651 µM [falling, full curve, poor fit] | –
FC(F)(F)c1cc(-c2cccs2)nc(-n2cc(Cl)cn2)n1 | 16.4 µM [falling, partial curve, poor fit] | –
O=C1CCN(C(=O)c2ccccc2)C2CCCCC12 (stereo unspecified) | 0.092 µM [rising, full curve, poor fit] | –
CC(C)(C)NC(=O)COC(=O)c1ccccc1NC(=O)c1ccco1 | 35.5 µM [falling, single point] | –
COc1cccc(CC(=O)OCC(=O)N(C)CC(=O)Nc2ccc(Cl)c(C(F)(F)F)c2)c1 | 8.2 µM [falling, partial curve, poor fit] | –
Nc1ccc(Cc2ccc(N)c(O)c2)cc1O | 20 µM [rising, single point] | –
N#C/C(=C/c1ccc(-c2cc(C(=O)O)cc(C(=O)O)c2)o1)c1nc2ccccc2s1 | 3.98 µM [falling, partial curve] | –
Cc1ccc(S(=O)(=O)Nc2ccc(Br)cc2C(NCC(=O)O)c2ccccc2)cc1 (stereo unspecified) | 2.91 µM [rising, single point] | –
COC(=O)c1ccccc1NC(=O)CSc1nnc(-c2ccc(C)cc2)o1 | 2.59 µM [falling, full curve] | –
Cc1sc2nc(C3CC3)nc(N3CCN(C(=O)c4ccccc4F)CC3)c2c1C | 10 µM [falling, partial curve, poor fit] | –
O=C(c1cc(-c2ccc(Br)cc2)nc2ccccc12)N1CCC1 | 5.8 µM [rising, partial curve, poor fit] | –
Oc1ccc(Br)cc1C=Nc1ccc(Cl)cc1 | 1.41 µM [falling, partial curve, poor fit] | –
COc1cc(CN(C)c2ccc(S(=O)(=O)N3CCCC3)cn2)ccc1OC(F)F | 18.4 µM [rising, single point] | –
O/N=C/c1ccccc1OCc1ccccc1F | 2.31 µM [rising, partial curve, poor fit] | –
Cc1c(CCC(=O)N2CCC[C@H]2C(=O)O)c(=O)oc2cc3oc4c(c3cc12)CCCC4 | 2.82 µM [rising, partial curve, poor fit] | 3.16 µM [falling, full curve]
